No constants are given. Whether binding was seen depends on the method and setting. Binding can be weak; no strength is given. Where a sequence is shown, tags or fusion partners need not be part of it.
T1: GST-GLO-3 (full length, amino acids 1–607) (C. elegans) (UniProt Q21045)
T1 sequence: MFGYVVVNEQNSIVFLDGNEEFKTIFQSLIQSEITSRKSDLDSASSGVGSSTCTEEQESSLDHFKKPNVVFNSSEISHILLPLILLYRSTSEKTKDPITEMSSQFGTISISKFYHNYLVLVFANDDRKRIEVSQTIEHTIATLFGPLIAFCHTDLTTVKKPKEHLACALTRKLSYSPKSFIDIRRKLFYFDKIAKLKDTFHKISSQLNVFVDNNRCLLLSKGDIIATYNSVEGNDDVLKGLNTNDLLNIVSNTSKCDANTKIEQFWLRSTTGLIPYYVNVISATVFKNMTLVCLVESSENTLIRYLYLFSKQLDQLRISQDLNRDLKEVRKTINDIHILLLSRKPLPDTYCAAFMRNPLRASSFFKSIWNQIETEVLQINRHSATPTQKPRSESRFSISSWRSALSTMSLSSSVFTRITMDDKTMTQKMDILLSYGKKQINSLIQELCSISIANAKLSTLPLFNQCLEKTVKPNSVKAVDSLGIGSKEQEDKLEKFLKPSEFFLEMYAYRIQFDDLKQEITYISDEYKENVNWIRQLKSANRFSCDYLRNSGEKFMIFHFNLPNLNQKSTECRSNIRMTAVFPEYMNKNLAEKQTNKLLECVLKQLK

Sequences of proteins named here, by UniProt entry; tags and fusion partners are left off. A change or cut given only in a name is not applied to a line headed by its entry.
UniProt Q9XVL8: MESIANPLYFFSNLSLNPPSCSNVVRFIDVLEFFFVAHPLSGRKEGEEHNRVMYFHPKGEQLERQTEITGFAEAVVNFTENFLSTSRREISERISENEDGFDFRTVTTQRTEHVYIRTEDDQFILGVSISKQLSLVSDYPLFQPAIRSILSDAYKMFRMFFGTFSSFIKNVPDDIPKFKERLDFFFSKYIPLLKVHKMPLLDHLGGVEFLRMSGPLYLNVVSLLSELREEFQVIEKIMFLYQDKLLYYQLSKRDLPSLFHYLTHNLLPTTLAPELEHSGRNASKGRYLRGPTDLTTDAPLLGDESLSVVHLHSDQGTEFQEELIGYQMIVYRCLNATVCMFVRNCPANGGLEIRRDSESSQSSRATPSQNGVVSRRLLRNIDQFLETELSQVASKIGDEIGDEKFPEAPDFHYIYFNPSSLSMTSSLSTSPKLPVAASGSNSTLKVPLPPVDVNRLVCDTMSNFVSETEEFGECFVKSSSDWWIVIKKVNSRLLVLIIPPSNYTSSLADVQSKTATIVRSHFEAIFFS

T2: GST-GLO-3 (amino acids 1–219) (C. elegans) (UniProt Q21045)
T2 sequence: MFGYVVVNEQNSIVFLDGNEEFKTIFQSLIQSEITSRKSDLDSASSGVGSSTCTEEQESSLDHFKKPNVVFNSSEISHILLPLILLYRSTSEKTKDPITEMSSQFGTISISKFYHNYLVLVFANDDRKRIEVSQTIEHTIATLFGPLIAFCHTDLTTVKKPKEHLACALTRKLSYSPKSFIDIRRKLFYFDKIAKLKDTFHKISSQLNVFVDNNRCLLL


What was measured:
[1] = molecular target: T1, GST-GLO-3 (full length, amino acids 1–607) (C. elegans); assay: pull-down; GST or GST-GLO-3 proteins (2.5 μg each) immobilised on glutathione-Sepharose beads, incubated with purified His6-CCZ-1 proteins in 1% BSA, 100mM Tris-HCl pH 7.5, 150mM NaCl, 10mM DTT, 0.05% NP40, 1mM PMSF at 4°C for 4 h; Western blot with anti-His6; both purified
[2] = molecular target: T2, GST-GLO-3 (amino acids 1–219) (C. elegans); assay: as above
[3] = molecular target: CCZ-1 (full length), LexA DNA binding domain fusion (bait) (C. elegans); assay: two-hybrid; DupLEX-A system in S. cerevisiae EGY48; LexA DNA binding domain bait (pEG202), B42 activation domain prey (pJG4-5); LEU2 and lacZ (pSH18-34) reporters; 30°C, 3 days

binding [1] | binding [2] | binding [3] | Molecule
binds | binds | – | His6-tagged CCZ-1 (amino acids 1–200) (C. elegans) (domain or fragment)
binds | – | – | His6-tagged CCZ-1 (full length, amino acids 1–528) (from UniProt Q9XVL8)
– | – | binds | GLO-3 (full length), B42 transcription activation domain fusion (prey) (protein, UniProt Q21045 1-607) MFGYVVVNEQNSIVFLDGNEEFKTIFQSLIQSEITSRKSDLDSASSGVGSSTCTEEQESSLDHFKKPNVVFNSSEISHILLPLILLYRSTSEKTKDPITEMSSQFGTISISKFYHNYLVLVFANDDRKRIEVSQTIEHTIATLFGPLIAFCHTDLTTVKKPKEHLACALTRKLSYSPKSFIDIRRKLFYFDKIAKLKDTFHKISSQLNVFVDNNRCLLLSKGDIIATYNSVEGNDDVLKGLNTNDLLNIVSNTSKCDANTKIEQFWLRSTTGLIPYYVNVISATVFKNMTLVCLVESSENTLIRYLYLFSKQLDQLRISQDLNRDLKEVRKTINDIHILLLSRKPLPDTYCAAFMRNPLRASSFFKSIWNQIETEVLQINRHSATPTQKPRSESRFSISSWRSALSTMSLSSSVFTRITMDDKTMTQKMDILLSYGKKQINSLIQELCSISIANAKLSTLPLFNQCLEKTVKPNSVKAVDSLGIGSKEQEDKLEKFLKPSEFFLEMYAYRIQFDDLKQEITYISDEYKENVNWIRQLKSANRFSCDYLRNSGEKFMIFHFNLPNLNQKSTECRSNIRMTAVFPEYMNKNLAEKQTNKLLECVLKQLK

Source: publication PMC6268011
